Experimental data: US5215979A, “16,17-acetalsubstituted pregnane 21-oic acid derivatives” (priority 1985, dated 1993)

Assay: Selectivity of left lung lobe instillation verified with Evans Blue
Format: in vivo, Sprague-Dawley rats
Conditions: instillation into left lung lobe

Question: Which “Applied substance found in the left lung half” value does the source give for `Cc1cc(-c2ccc(/N=N/c3ccc4c(S(=O)(=O)O)cc(S(=O)(=O)O)c(N)c4c3O)c(C)c2)ccc1/N=N/c1ccc2c(S(=O)(=O)O)cc(S(=O)(=O)O)c(N)c2c1O` [Evans Blue] here?
Answer: > 95%

Question: And the “Applied substance found in the right lung half” value?
Answer: < 5%
